No constants are given. Whether binding was seen depends on the method and setting. In cells and extracts the contact can be indirect. Some results given as binding are weak or reduced against the parent protein; the word gives no strength.
Biological target: protein arginine methyltransferase 5 (PRMT5) (mouse (endogenous in testis)) (UniProt Q8CIG8)
Experiment: co-IP; α-EGFP or α-PRMT5 IgG; total cell extracts of adult testis cells fixed in 1% formaldehyde for 5 min; immunoblot with α-EGFP and α-PRMT5

Protein sequences, listed by entry. Tags and fused reporters are not part of them.
UniProt Q8CIG8: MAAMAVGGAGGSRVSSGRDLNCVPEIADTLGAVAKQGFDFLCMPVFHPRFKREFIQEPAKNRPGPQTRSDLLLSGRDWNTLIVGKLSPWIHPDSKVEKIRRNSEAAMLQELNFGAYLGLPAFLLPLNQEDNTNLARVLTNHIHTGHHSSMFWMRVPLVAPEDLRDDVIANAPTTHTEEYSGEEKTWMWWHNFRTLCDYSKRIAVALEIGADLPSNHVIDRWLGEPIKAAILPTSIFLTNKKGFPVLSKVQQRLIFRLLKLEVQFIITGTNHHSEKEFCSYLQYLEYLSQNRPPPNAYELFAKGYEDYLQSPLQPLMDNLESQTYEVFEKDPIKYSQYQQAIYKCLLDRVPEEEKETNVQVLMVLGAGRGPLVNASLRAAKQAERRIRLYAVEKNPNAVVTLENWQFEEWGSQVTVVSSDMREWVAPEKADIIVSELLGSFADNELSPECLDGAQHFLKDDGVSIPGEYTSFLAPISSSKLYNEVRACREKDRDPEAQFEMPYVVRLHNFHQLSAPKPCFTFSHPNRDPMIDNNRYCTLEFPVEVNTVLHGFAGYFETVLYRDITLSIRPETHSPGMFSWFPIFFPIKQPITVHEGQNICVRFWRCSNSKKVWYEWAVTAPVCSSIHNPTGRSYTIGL
UniProt P61407: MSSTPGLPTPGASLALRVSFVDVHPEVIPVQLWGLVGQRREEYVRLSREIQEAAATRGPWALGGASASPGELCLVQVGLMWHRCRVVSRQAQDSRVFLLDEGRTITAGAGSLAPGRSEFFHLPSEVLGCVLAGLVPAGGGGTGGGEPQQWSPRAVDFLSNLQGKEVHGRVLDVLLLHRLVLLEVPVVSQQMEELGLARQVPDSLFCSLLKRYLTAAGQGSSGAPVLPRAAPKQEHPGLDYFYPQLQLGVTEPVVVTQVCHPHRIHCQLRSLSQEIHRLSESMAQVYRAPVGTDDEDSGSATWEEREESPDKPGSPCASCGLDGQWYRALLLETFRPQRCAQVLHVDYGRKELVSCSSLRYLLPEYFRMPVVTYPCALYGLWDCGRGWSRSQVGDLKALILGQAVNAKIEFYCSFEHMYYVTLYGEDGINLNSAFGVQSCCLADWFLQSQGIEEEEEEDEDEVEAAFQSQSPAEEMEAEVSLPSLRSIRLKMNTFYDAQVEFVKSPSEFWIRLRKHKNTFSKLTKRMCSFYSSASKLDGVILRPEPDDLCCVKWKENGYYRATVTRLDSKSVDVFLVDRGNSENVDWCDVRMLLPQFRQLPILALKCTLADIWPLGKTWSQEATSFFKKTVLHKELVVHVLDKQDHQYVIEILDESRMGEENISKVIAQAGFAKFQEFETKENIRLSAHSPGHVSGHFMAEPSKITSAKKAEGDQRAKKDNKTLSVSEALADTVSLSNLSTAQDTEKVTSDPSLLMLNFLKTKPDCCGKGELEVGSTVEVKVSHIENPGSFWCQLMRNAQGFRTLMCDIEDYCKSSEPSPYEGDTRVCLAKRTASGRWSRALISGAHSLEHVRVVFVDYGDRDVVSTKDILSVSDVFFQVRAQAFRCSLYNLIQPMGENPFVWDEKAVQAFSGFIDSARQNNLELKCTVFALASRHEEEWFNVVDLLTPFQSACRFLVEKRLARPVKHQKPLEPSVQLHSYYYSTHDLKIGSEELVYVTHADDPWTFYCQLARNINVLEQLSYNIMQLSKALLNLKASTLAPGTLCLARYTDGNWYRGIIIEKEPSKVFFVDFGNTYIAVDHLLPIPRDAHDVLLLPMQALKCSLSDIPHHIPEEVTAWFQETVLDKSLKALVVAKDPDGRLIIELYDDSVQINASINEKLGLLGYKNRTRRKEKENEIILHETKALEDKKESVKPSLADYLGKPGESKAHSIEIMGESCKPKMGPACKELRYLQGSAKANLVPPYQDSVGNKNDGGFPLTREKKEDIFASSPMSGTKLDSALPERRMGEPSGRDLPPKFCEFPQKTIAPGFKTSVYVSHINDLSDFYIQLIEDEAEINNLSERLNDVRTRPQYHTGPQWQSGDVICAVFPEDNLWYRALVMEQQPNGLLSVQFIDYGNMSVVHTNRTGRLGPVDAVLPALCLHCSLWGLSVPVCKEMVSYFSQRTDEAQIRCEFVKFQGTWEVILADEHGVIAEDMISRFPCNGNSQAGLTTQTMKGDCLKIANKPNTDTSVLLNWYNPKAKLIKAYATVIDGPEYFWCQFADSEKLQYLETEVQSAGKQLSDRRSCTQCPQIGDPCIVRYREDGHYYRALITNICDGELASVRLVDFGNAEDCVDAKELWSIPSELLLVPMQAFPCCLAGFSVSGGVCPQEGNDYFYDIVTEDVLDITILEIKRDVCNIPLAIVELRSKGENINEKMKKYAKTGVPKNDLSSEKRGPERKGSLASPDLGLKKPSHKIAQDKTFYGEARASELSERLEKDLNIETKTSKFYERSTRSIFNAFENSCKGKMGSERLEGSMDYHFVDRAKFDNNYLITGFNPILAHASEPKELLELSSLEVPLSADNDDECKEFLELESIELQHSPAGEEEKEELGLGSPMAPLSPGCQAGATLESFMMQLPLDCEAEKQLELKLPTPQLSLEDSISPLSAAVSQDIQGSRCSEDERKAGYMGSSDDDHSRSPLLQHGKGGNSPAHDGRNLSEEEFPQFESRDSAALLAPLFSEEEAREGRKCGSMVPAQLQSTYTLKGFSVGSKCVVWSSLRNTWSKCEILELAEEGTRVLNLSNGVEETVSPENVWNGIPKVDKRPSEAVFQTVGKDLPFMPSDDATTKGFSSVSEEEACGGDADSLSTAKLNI

binding: binds
Substance: LAP-tagged TDRD6 (Tudor containing protein 6) (from UniProt P61407 1-2134)
